Reference: paper PMC12446476 (Nature Communications, 2025)
The source gives many values for each of these; only a part stands here.

Tested on: intracellular N. gonorrhoeae
Assay: Intracellular killing in HeLa229 cells
Type: cell-based, Neisseria gonorrhoeae
Conditions: isolate NCTC 13820; 24 hr; 8X MIC; dilution 0; replicates 1-3, counts 1-2
Protocol: Intracellular killing was assessed within HeLa229 cells (European Collection of Authenticated Cell Cultures, London, UK) that were seeded at ~3 × 10^5 cells/mL and grown to 70–80% confluence in RPMI-glutamine media supplemented with 10% (v/v) heat-inactivated fetal bovine serum (FBS, Gibco, MA, USA). Cells were incubated at 37 °C with 5% CO2 for 24 h, then washed with serum-free RPMI-1640 prior to infection. N. gonorrhoeae was scraped from agar plates and resuspended in Dulbecco’s Phosphate Buffered Saline (DPBS, Sigma-Aldrich), pelleted, then resuspended in RPMI with 2% FBS. Bacterial suspensions were used to infect HeLa229 cells at a multiplicity of infection of 100:1. Plates were briefly centrifuged (500 × g for 5 min), then incubated for one hour. This incubation and all subsequent incubations were performed at 37 °C with 5% CO2. Non-adherent cells were removed by washing with serum-free RPMI, and the remaining extracellular bacteria were killed via resuspension in RPMI-glutamine supplemented with 2% FBS and 200 μg/mL gentamycin and incubation for one hour. […] Azithromycin-treated samples were included for control/comparison. […] Samples were diluted and plated onto chocolate II agar for viable bacteria quantification. Intracellular killing assays were performed at Microbiologics, Kalamazoo, MI, USA, using a method adapted from previous studies[68],[69].

## Cc1c(CN(C)C(=O)/C=C/c2cnc3c(c2)N[C@H](C)[C@H](O)C(=O)N3)oc2ccccc12 [Debio 1453]
  Colony forming units (CFU) of N. gonorrhoeae internalised in HeLa229 cells, colony count: 0 CFU
